No constants are given. Whether binding was seen depends on the method and setting. In cells and extracts the contact can be indirect. Some results given as binding are weak or reduced against the parent protein; the word gives no strength.
Experiments:
Experiment in all cases: co-IP
[1] = biological target: human RNF5 with a Flag tag (human) (UniProt Q99942)
[2] = biological target: SARS-CoV-2 envelope (E) protein with an HA tag (SARS-CoV-2) (UniProt P0DTC4)
[3] = biological target: SARS-CoV-2 membrane (M) protein with an HA tag (SARS-CoV-2) (UniProt P0DTC5)

| Substance | binding [1] | binding [2] | binding [3] |
| --- | --- | --- | --- |
| SARS-CoV-2 envelope (E) protein with an HA tag (from UniProt P0DTC4 1-75) | binds | – | – |
| human RNF5 with a Flag tag (from UniProt Q99942 1-180) (enzyme) | – | binds | binds |

Reference: paper PMC9897159
